These are yes or no findings as the source states them, for the method shown. In cells and extracts the contact can be indirect. Some binding calls cover weakened binding; strength is not graded here. Where a sequence is shown, tags or fusion partners need not be part of it.

The target in experiment [1] is T1, Ankyrin repeat, SOCS box-containing 4 (ASB4), 3xFLAG-tagged (UniProt Q9WV71).
T1 sequence: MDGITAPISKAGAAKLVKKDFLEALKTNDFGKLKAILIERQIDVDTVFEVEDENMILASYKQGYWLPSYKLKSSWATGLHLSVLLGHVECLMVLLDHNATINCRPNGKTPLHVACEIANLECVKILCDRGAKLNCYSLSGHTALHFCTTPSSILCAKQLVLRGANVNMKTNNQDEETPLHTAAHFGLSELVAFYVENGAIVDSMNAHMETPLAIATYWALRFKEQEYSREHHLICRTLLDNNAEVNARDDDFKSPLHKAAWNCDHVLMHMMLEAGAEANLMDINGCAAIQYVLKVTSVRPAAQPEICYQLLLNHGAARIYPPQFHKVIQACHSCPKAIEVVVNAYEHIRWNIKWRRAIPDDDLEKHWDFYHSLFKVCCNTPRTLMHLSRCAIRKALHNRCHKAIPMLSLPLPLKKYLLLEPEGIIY
In words: co-IP; JAR cells co-transfected with 3xFLAG-Asb4 and 6xmyc-Id2, low dose of MG-132; lysis in 50 mM Tris pH 7.5, 150 mM NaCl, 1 mM EDTA, 1 mM EGTA, 0.5% NP-40; cross-linked with 2 mM DSP 2 h at 4°C; pre-cleared with IgG and Protein A/G beads; precipitated with anti-c-myc or anti-FLAG affinity gel, blotted for FLAG or myc.

For experiment [2], the target named is T2, Inhibitor of DNA binding 2 (ID2), 6x-myc-tagged (UniProt P41136).
T2 sequence: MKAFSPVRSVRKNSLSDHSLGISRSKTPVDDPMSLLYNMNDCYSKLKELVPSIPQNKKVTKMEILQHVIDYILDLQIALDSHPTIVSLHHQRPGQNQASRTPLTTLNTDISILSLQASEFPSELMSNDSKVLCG
Described as above.

Experiment [3] deals with T3, Inhibitor of DNA binding 2 (ID2), myc-tagged, transfected in 2H-11 cells (UniProt P41136).
T3 sequence: T2 sequence
In words: co-IP; 2H-11 cells stably expressing FLAG-tagged Asb4, transfected with increasing amounts of myc-tagged Id2, low dose of MG-132; lysed and pre-cleared as for JAR cells; precipitated with anti-myc agarose beads, blotted for FLAG.

B1: Inhibitor of DNA binding 2 (ID2), 6x-myc-tagged (protein, UniProt P41136 1-134)
chain: T2 sequence
Consider B1, for which the binding result in experiment [1] is given as “binds”.

B2: Ankyrin repeat, SOCS box-containing 4 (ASB4), 3xFLAG-tagged (enzyme, UniProt Q9WV71 1-426)
chain: T1 sequence
As to B2, in experiment [2], the binding result is “binds”.

B3: Ankyrin repeat, SOCS box-containing 4 (ASB4), FLAG-tagged, stably expressed in 2H-11 cells (enzyme, UniProt Q9WV71 1-426)
chain: T1 sequence
As for B3, the binding entry in experiment [3] is “binds”.

The values above are taken from PMC3931756.
